According to article PMC7819943, “Rice protein-binding microarrays: a tool to detect cis-acting elements near promoter regions in rice”:
This is one part of the list.

Sequences of proteins named here, by UniProt entry; tags and fusion partners are left off.
UniProt Q0JBA9, entry or part of it: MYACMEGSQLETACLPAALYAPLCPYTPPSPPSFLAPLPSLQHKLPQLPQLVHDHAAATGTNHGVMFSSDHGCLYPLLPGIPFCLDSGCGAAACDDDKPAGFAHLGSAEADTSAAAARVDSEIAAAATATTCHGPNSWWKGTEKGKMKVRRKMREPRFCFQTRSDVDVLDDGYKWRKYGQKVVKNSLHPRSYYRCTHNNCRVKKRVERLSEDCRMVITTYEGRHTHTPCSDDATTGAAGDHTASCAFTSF

molecular target: OsWRKY34 (Oryza sativa, UniProt Q0JBA9 1-250); experiment: protein-binding microarray (RPBM); PBS, 2% BSA, 51.3 ng/ul salmon testes DNA, 50 uM zinc acetate, 200 nM TF, 25 C, 1 h; high values mean tight binding; details: protein: recombinant; tags: N-terminal polyhistidine and DsRed monomer fusion (pET32a); label: CyDye5-dUTP incorporated in the synthesized complementary strand; 3' TTTTT single-stranded linker to array surface; dsDNA, one strand shown
Method in brief: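 Transcription factors were made in E. coli BL21-CodonPlus as N-terminal fusions to a polyhistidine tag and DsRed, then purified on Ni–NTA. After primer extension with Cy5-dUTP and blocking with 2% BSA, a custom Agilent array was exposed for 1 h at 25 °C to 200 nM protein in PBS, 2% BSA, salmon testes DNA and 50 µM zinc acetate. Washed arrays were scanned on an Axon 4000B, and the binding signal is per-feature fluorescence intensity in arbitrary units.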

Row | Sequence | binding signal
1 | GCTTACCTCCACAATCACACTGAGCTAACCTCCATTTCCACGGAGTCACCTAGTGCAG | 9470 fluorescence intensity (a.u.)
2 | GTCCGACAAATTTACTTTCACGCTTTACCCTTTCTCTTTTCGGAGTCACCTAGTGCAG | 10100 fluorescence intensity (a.u.)
3 | GACAGCGTGAATTCGAGGGATTTCTTGGCTGGTTTGGTTGCGGAGTCACCTAGTGCAG | 10100 fluorescence intensity (a.u.)
4 | CTTTTCTCTCCCTATTTCTCAGGGATCATTCTGTAATTTCCGGAGTCACCTAGTGCAG | 8840 fluorescence intensity (a.u.)
5 | GAACATAACCAACTATAACTTCATTCATTCATACAAATATCGGAGTCACCTAGTGCAG | 8260 fluorescence intensity (a.u.)
6 | TCTGGTGTTTTCAGTTCTTCATGTCATTTTCATTTTATTGCGGAGTCACCTAGTGCAG | 11100 fluorescence intensity (a.u.)
7 | ACCCAGTGGCAGGCATCTTTTCATTATCTGATTAGTTTGTCGGAGTCACCTAGTGCAG | 8070 fluorescence intensity (a.u.)
8 | AAGTCCATTTTCGATCTAGAAGCTCACAGTTTCTTTTCTACGGAGTCACCTAGTGCAG | 9000 fluorescence intensity (a.u.)
9 | GGGTTTGGGGATCGATTGATTTATAGGCTTTTTTGTTTTTCGGAGTCACCTAGTGCAG | 8810 fluorescence intensity (a.u.)
10 | AATGATTACACTTACCCTTTGTTACCGAAGTTTTACTTTACGGAGTCACCTAGTGCAG | 8050 fluorescence intensity (a.u.)
11 | GTACTTGCTTAAGCTCCTCTTCTTCCCTTGACTCCTCTTCCGGAGTCACCTAGTGCAG | 8110 fluorescence intensity (a.u.)
12 | TTTTCCTAGCAGACTCATCATTTTGCTCACCTGCTCTGTGCGGAGTCACCTAGTGCAG | 8150 fluorescence intensity (a.u.)
13 | TTATATATATTACATGTTAATACAACTTCTTATATTTTTTCGGAGTCACCTAGTGCAG | 10700 fluorescence intensity (a.u.)
14 | GACTTGTTCTTTTTGTTGTACGTGCGTGTCAGGGTCAAACCGGAGTCACCTAGTGCAG | 9710 fluorescence intensity (a.u.)
15 | CTAATCAGTGATAAACACACACTTTAAGCCACGTATCTTTCGGAGTCACCTAGTGCAG | 8050 fluorescence intensity (a.u.)
16 | ATGCACTGCACCTGGAGCTTCTTTCTTCTTTTCTTCCGGCCGGAGTCACCTAGTGCAG | 8780 fluorescence intensity (a.u.)
17 | AATCACCTCGACCTATGAAATTACTCAGCTTGCAGCAATGCGGAGTCACCTAGTGCAG | 8220 fluorescence intensity (a.u.)
18 | GAGGCGGAGGAGGGGCGGCGCCAGCATCATTGGCGGGCTTCGGAGTCACCTAGTGCAG | 9080 fluorescence intensity (a.u.)
19 | AATACTCTTGAGCCCTCTAATATCTTGGAACATTTTTTTTCGGAGTCACCTAGTGCAG | 8120 fluorescence intensity (a.u.)
20 | CCGACTCTCCGCCCTCGTAATCACGCGCTAATCCGTCGTTCGGAGTCACCTAGTGCAG | 10400 fluorescence intensity (a.u.)
21 | TCAAGTTCTTGTGAGTTGTTTGGCTTGATTGGCTTGACTCCGGAGTCACCTAGTGCAG | 12000 fluorescence intensity (a.u.)

Row | Sequence | binding signal
22 | CTCTCATCTCAGCCTCTCACTTGAACTGCAGATATATATACGGAGTCACCTAGTGCAG | 8140 fluorescence intensity (a.u.)
23 | CGTCCGTCTCCATCTGACACCTCCCAGTGCTTGCGCCCATCGGAGTCACCTAGTGCAG | 8030 fluorescence intensity (a.u.)
24 | ACATTCTCTGTTGCCGATTTGTTCGCTTGCCGTGAGTATCCGGAGTCACCTAGTGCAG | 11400 fluorescence intensity (a.u.)
25 | GTTTCTTTTCTCCGTTTCTCGCCTCGTCCCCTTCCACACGCGGAGTCACCTAGTGCAG | 9070 fluorescence intensity (a.u.)
26 | AAATATCATACGTTATTAGGTTTGTTTATATTTATATTTTCGGAGTCACCTAGTGCAG | 8940 fluorescence intensity (a.u.)
27 | GCGTTAACTTTTTTAAATATGTTTTACTGTTCGTCTTATTCGGAGTCACCTAGTGCAG | 9520 fluorescence intensity (a.u.)
28 | GCAGTCTTACATATTCATGTCACTACGCAGCAACGGACAACGGAGTCACCTAGTGCAG | 9150 fluorescence intensity (a.u.)
29 | GACACTTTCACTAATCACAGCTCACTTCAGCTCGCTCGCTCGGAGTCACCTAGTGCAG | 9790 fluorescence intensity (a.u.)
30 | CCTCGTCCACCAACGCCGAGGCCATCGCCACCCAGCCCTACGGAGTCACCTAGTGCAG | 8860 fluorescence intensity (a.u.)
31 | ATACCACCTCGCCCACCCTCCGGTATATATTGAAACTATTCGGAGTCACCTAGTGCAG | 8600 fluorescence intensity (a.u.)
32 | CCACTTCTTTTTTTCCCGCTGCGCCGTGGGCCCCACTACTCGGAGTCACCTAGTGCAG | 11400 fluorescence intensity (a.u.)
33 | GCGTGCGTGTGCGTGTCCACCCTGATCGCCGTTGGATCTCCGGAGTCACCTAGTGCAG | 8260 fluorescence intensity (a.u.)
34 | GAACCCATCTTTTCTTTGATCCCCAATCCTCTTTTGCCGACGGAGTCACCTAGTGCAG | 10800 fluorescence intensity (a.u.)
35 | GCAAACGATGTCTCTCGACAGTATTGTGTTCTGTTTTAGCCGGAGTCACCTAGTGCAG | 8620 fluorescence intensity (a.u.)
36 | TCAATTGTCATGCGTTCGTTTTTCTTTCTCGTTGCCTTTCCGGAGTCACCTAGTGCAG | 10800 fluorescence intensity (a.u.)
37 | ACTCCTCTCTGTCTTCTCTGTGTGGGTGAGGCGGGGCATGCGGAGTCACCTAGTGCAG | 14600 fluorescence intensity (a.u.)
38 | CCTCCATGCTCGCCATCGCCTGCCTTCCTGCCTTCAAACTCGGAGTCACCTAGTGCAG | 8570 fluorescence intensity (a.u.)
39 | CACGCACCGCCCATGCGTCCTTATCCACCCACCTCTCCACCGGAGTCACCTAGTGCAG | 8240 fluorescence intensity (a.u.)
40 | CTCCGCCCGCACCCGTCGCTGCTCTGTGCCGCACTCGCCGCGGAGTCACCTAGTGCAG | 8580 fluorescence intensity (a.u.)
41 | ACTTTGTTGTTGATGACTTTTTCAGTTGAAGTCGTTCACTCGGAGTCACCTAGTGCAG | 8840 fluorescence intensity (a.u.)
42 | ACCACGCCACGCCCGCCGCCACCTGCGCCGCGCTCGCCCCCGGAGTCACCTAGTGCAG | 8160 fluorescence intensity (a.u.)

Looked up one by one from the list above:
Row | Sequence | binding signal
24 | ACATTCTCTGTTGCCGATTTGTTCGCTTGCCGTGAGTATCCGGAGTCACCTAGTGCAG | 11400 fluorescence intensity (a.u.)
39 | CACGCACCGCCCATGCGTCCTTATCCACCCACCTCTCCACCGGAGTCACCTAGTGCAG | 8240 fluorescence intensity (a.u.)
